Assay: Assaying adrenalin and noradrenaline in primo fluid, urine, blood plasma and lymphatic fluid (Epinephrine/Norepinephrine ELISA Kit)
Design: species or system rat
Settings: for concentration in primo fluid: endogenous level, FIG. 4 / FIG. 5; for concentration in primo fluid relative to concentration in blood plasma: primo fluid vs blood plasma; for concentration in primo fluid relative to concentration in lymphatic fluid: primo fluid vs lymphatic fluid; for concentration in primo fluid relative to concentration in urine: primo fluid vs urine

Compound: NC[C@H](O)c1ccc(O)c(O)c1 [noradrenaline]
- concentration in primo fluid: about 138 ng/mL
- concentration in primo fluid relative to concentration in blood plasma: at least 6.5 times
- concentration in primo fluid relative to concentration in lymphatic fluid: at least about four times
- concentration in primo fluid relative to concentration in urine: at least 13 times

Compound: CNCC(O)c1ccc(O)c(O)c1 (centres unmarked) [adrenalin]
- concentration in primo fluid: about 78 ng/mL
- concentration in primo fluid relative to concentration in blood plasma: at least 15 times
- concentration in primo fluid relative to concentration in lymphatic fluid: at least about four times
- concentration in primo fluid relative to concentration in urine: at least 15 times
